According to paper PMC8421267:
Results are given in words; binding and its absence hold for the method and conditions named. In cells and extracts the contact can be indirect. Some binding calls cover weakened binding; strength is not graded here.

Amino acid sequences for entries named in this document (tags omitted).
UniProt Q9H4A6: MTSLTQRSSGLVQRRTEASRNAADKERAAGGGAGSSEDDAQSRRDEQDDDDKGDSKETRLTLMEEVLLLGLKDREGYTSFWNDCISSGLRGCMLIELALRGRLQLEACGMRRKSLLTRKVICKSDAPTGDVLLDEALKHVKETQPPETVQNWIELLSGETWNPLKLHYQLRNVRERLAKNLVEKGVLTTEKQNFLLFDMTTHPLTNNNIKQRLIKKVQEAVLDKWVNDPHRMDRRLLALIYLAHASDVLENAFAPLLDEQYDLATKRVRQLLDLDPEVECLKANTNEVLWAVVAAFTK
UniProt Q9H4A5: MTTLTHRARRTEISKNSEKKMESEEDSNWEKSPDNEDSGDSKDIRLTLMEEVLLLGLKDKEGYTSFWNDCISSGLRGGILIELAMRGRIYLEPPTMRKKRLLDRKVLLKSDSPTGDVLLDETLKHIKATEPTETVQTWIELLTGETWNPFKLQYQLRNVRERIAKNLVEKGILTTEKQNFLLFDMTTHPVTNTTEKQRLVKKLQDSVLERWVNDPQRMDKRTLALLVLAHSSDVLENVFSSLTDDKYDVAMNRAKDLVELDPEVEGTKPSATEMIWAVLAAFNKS
UniProt P53618: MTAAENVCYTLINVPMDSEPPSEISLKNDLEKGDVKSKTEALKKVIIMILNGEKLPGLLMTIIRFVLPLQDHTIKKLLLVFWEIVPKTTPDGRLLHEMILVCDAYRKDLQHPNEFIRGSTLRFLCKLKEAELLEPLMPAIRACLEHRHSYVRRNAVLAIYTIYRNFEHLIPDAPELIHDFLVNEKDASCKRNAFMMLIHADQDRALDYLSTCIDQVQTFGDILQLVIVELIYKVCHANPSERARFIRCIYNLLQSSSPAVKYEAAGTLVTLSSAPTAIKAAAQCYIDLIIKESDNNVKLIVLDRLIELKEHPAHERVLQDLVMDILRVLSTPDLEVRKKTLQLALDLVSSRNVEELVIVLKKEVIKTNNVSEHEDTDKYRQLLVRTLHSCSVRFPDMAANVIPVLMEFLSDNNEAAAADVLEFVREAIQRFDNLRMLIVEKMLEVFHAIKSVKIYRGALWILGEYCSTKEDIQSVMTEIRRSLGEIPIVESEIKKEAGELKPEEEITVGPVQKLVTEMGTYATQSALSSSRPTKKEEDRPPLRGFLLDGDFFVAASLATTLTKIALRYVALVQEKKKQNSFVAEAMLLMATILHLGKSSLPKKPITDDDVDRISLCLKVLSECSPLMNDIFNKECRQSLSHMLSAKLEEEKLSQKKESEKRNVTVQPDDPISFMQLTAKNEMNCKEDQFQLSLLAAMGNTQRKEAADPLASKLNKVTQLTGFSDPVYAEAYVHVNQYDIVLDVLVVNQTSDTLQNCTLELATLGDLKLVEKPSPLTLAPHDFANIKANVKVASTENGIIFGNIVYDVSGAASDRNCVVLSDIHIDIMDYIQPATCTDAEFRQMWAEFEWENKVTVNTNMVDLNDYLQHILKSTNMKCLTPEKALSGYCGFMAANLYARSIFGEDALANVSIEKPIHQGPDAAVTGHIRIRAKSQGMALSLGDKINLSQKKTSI

Experiments:
GST-GOLPH3 = GST-GOLPH3 (UniProt Q9H4A6); assay: pull-down; GST pull-downs from 293T cell lysate as for the mass spectrometry (GST-GOLPH3, GST-GOLPH3L or GST alone on glutathione beads), read by immunoblot; only the target purified
GST-GOLPH3L = GST-GOLPH3L (UniProt Q9H4A5); assay: as above

binding (GST-GOLPH3): binds
binding (GST-GOLPH3L): binds
Substance: β-COP (from UniProt P53618 1-953)
